Where a name gives a salt, the structure may show the parent alone.
System: H9 cells
Assay: qHTS for survival of dissociated H9 cells (CellTiter-Glo, 24 hours after seeding)
Assay type: cell-based, human
Settings: curve class per Huang et al. 2011
Text: FIG. 2 schematically illustrates qHTS procedure.
All the screed compounds were received pre-plated at the pre-determined concentrations. […] Curve classification is explained in Huang et al. “Chemical genomics profiling of environmental chemical modulation of human nuclear receptors” Environ. Health. Perspect.

SMILES	CC (curve class)
CNCCC(Oc1ccc(C(F)(F)F)cc1)c1ccccc1 (stereo not shown) [Fluoxetine hydrochloride]	4
C[C@@H]1CCN(C(=O)N2CCCC2)C[C@@H]1N(C)c1ncnc2[nH]ccc12 [PF-956980]	3
COc1ccc2c(c1O)OC[C@H]1c3ccc(O)cc3O[C@@H]21 [NCGC00384860-01]	2
C[C@H]1[C@H](C)CC[C@]2(C(=O)O)CC[C@]3(C)C(=CC[C@@H]4[C@@]5(C)CC[C@H](O)C(C)(C)[C@@H]5CC[C@]43C)[C@H]12 [URSOLIC ACID]	4
COCC(=O)NC/C=C/c1ccc2ncnc(Nc3ccc(Oc4ccc(C)nc4)c(C)c3)c2c1 [CP-724714]	2
O=C(NCc1ccccc1)c1csc(Nc2ccncn2)n1 [Thiazovivin]	1
CC1(C)CC[C@]2(C(=O)O)CC[C@]3(C)C(=CC[C@@H]4[C@@]5(C)CC[C@H](O)C(C)(C)[C@@H]5CC[C@]43C)[C@@H]2C1 [Oleanolic acid]	4

Source: patent US20210348119A1, “COMPOSITIONS AND METHODS FOR CELL CULTURE” (The United States of America as Represented By The …, priority 2018, published 2021)
